{
  "source": "patent US20250290928A1",
  "about": "“METHOD, KIT AND DEVICE FOR DETECTING EXTRACELLULAR VESICLES” (priority 2022, published 2025)",
  "system": "MMP14 in the HT1080 culture supernatants and the culture medium samples",
  "assay": "Digital detection of MMP14 active component in HT1080 culture supernatants, culture media and recovered liquids in wells",
  "assay_type": "biochemical, Human",
  "conditions": "HT1080 culture Absent",
  "procedure": "In addition, for detection of MMP14 activity, 1 mM Custom #1 was diluted with the buffer (4) to prepare a MMP14 detection solution containing 5 μM Custom #1 and 2 μM Alexa Fluor 647.",
  "data": [
    {"substance": "[5-FAM]GRIGFLRTAK(TQ2)[OH] (5-FAM, TQ2 quencher, free acid) [Custom #1]", "values": [
      {"measurement": "MMP14 active component concentration", "setting": "Experiment condition (III): FBS culture medium, Reaction 4 hr", "value": "2.635e+11", "unit": "mL⁻¹"},
      {"measurement": "MMP14 active component concentration", "setting": "Experiment condition (III): FBS culture medium, Reaction 24 hr", "value": "2.744e+11", "unit": "mL⁻¹"},
      {"measurement": "MMP14 active component concentration", "setting": "Experiment condition (IX): MEM culture medium, Reaction 4 hr", "value": "4.3e+07", "unit": "mL⁻¹"},
      {"measurement": "MMP14 active component concentration", "setting": "Experiment condition (IX): MEM culture medium, Reaction 24 hr", "value": "5.7e+07", "unit": "mL⁻¹"},
      {"measurement": "MMP14 active component concentration", "setting": "Experiment condition (VI): Exo-FBS culture medium, Reaction 4 hr", "value": "2.487e+11", "unit": "mL⁻¹"},
      {"measurement": "MMP14 active component concentration", "setting": "Experiment condition (VI): Exo-FBS culture medium, Reaction 24 hr", "value": "2.407e+11", "unit": "mL⁻¹"}
    ]}
  ]
}
